No constants are given. Whether binding was seen depends on the method and setting. Some binding calls cover weakened binding; strength is not graded here.
Target: platelet glycoprotein IIb/IIIa on platelets (UniProt P08514)
Assay: flow cytometry, inhibition of fibrinogen binding to ADP-activated platelets

The chains behind the UniProt entries cited, without tags or fusion partners. Where a name states a change or a piece, a line headed by the entry shows the natural chain unless it says otherwise.
UniProt P08514: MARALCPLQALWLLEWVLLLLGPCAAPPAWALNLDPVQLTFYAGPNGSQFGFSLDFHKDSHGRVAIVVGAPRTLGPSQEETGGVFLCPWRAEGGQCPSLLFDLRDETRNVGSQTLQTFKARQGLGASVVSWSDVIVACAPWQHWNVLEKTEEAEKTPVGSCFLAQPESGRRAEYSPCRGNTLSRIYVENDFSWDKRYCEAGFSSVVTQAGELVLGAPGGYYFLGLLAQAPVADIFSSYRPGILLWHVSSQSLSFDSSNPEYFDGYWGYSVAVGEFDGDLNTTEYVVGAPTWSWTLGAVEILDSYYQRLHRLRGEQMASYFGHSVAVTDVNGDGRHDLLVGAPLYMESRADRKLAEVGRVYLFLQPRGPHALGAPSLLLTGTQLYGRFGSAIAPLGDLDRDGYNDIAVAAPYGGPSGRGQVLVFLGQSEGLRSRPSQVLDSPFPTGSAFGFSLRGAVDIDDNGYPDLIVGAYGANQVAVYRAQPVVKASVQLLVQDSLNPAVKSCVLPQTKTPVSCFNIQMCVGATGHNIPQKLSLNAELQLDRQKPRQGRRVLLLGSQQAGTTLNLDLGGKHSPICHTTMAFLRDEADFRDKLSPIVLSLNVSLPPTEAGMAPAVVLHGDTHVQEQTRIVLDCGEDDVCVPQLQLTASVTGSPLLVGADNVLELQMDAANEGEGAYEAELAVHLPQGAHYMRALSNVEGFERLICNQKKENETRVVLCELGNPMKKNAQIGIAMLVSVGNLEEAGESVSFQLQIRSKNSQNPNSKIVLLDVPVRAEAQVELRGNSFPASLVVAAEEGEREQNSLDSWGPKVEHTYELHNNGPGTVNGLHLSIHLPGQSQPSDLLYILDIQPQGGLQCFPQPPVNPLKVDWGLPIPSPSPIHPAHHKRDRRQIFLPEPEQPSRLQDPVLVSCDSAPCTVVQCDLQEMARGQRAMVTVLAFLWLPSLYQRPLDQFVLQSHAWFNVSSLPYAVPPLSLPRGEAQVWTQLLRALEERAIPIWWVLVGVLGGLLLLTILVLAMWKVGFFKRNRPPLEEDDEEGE

B1: Fab-expressing phage clone S4 (Fab, V domains shown)
VH: VQLLEESGGGLVQPGGSLRLSCTASRFTLSTYEMNWVRQAPGKGLEWVSYISTSGGIMYYADSVRGRFTISRDNAKNSLYLQMNSLRAEDTALYYCATVTLDGNNPFENWGQGTLVT
VL: AAELTQSPLSLSVTLGQPASIACKSSHSLARSDGVSLMNWVHLRPGRSPRRLIYDVSKRENGVPDRFSGSGSGTDFTLEINRVEAEDVGLYYCLQYAHWPHTFGQGTKLEIKR
- binding: binds

Reference: patent US20070003551A1
